Results are percentages, as filed. The controls that fix the scale are not given in the record; negative values are as filed. This is an unselected part of the compounds tested. A dash means the value is not listed here; it may have been measured.

Protein sequences, listed by entry. Tags and fused reporters are not part of them.
UniProt E9BF75, entry or part of it: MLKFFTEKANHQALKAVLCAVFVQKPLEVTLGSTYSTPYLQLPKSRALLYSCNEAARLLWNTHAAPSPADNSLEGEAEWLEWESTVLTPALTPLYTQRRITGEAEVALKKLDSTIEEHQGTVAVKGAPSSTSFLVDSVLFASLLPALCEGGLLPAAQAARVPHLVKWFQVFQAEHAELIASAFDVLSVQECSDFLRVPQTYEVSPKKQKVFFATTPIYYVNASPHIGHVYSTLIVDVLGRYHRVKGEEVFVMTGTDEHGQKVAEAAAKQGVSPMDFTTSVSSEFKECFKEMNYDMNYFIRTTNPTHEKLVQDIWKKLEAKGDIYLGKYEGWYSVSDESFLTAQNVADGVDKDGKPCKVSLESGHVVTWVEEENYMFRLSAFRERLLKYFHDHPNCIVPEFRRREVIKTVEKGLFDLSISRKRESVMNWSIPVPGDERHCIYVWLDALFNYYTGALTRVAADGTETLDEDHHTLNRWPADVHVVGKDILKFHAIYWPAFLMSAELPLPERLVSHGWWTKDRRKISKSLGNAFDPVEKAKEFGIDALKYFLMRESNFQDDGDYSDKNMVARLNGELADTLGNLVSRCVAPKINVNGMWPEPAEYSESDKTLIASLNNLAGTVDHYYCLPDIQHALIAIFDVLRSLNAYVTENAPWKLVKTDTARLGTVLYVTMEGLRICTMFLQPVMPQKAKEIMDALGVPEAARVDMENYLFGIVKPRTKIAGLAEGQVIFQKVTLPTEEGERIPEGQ

LdMetRS: 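Primary screen of methionyl-tRNA synthetase; the read-out is not stated. Target: Methionyl-tRNA synthetase (putative), Leishmania donovani (UniProt E9BF75). The test concentration is not given. The values are filed as inhibition. Size under these conditions: about 68,000 compounds, about 24 of them at 50% or above in at least one test.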
Mtb heat-shock: 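Assay on Mycobacterium tuberculosis, filed only as a heat shock assay from Cornell; the read-out is not stated. The concentration is filed as 10 mM, unlikely as a test dose, so the dose is not known. The record gives no direction; compounds that gave an IC50 in retests scored well above the rest, so higher reads as stronger inhibition. Size under these conditions: about 69,000 compounds, about 930 of them at 50% or above in at least one test.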

structure,LdMetRS,Mtb heat-shock
Cc1ccoc1C(=O)NCCOc1ccc(C(F)(F)F)cn1,6.767%,-18.06%
CCN(CC)c1ccc2ccc(C(=O)O)cn12,27.54%,4.754%
c1cncc(COC[C@H]2CC[C@H]3[C@H](CCN3Cc3nccs3)O2)c1,8.791%,-
Cn1cc(CN2CCc3ncnc(C4CCOC4)c3CC2)cn1 (stereo not shown),12.11%,-1.23%
CCOCCCC(=O)N1CCN(c2cccc(OC)c2)C(C)C1 (stereo not shown),-0.2786%,-6.955%
Fc1ccccc1CN1CCCC(NC2CCOCC2)C1 (stereo not shown),7.107%,13.47%
CC(C)c1noc(CN(CCC2CCCCC2)CC(N)=O)n1,7.859%,5.413%
c1cc(CN2CCC3(CC2)COC(COCC2CC2)C3)ccn1 (stereo not shown),18.16%,-
Cc1nn(C)c(C)c1CN(CCO)C(=O)C1COc2ccccc2C1 (stereo not shown),0.3484%,-21.5%
O=C(O)c1cc(NS(=O)(=O)c2ccccc2F)ccc1N1CCSCC1,14.8%,-8.217%
O=S(=O)(c1ccc(F)c(F)c1)n1cc(Cl)cn1,8.108%,16.97%
O=C(O)C(F)(F)F.O=C(O)C(F)(F)F.c1cnc(N2CCCC3(CCN(CC4CC4)C3)C2)nc1 (stereo not shown),-,-6.695%
COc1cccc2c1OCC(C(=O)N1CCN(S(=O)(=O)N(C)C)CC1)C2 (stereo not shown),7.358%,-5.437%
CC(C)NC(=O)N1CC[C@@H]2CN(Cc3ccccc3)S(=O)(=O)[C@@H]2CC1,5.051%,-
Cc1nc(C)n(C2CCCN(C(=O)c3sccc3C)C2)n1 (stereo not shown),23.38%,-14.04%
COCC(=O)NCc1cc2n(n1)CCCN(Cc1ccccc1SC)C2,15.68%,-15.81%
COC1COC2(CCN(CC3CCOCC3)CC2)C1 (stereo not shown),14.08%,-
Cc1nccc(N2CCC(Cc3cccc(C(=O)O)c3)CC2)n1,11.34%,7.244%
Cc1nc(CN2CCCn3c(nc(Cn4ccnc4)cc3=O)C2)cs1,5.394%,-10.06%
CNc1cc(C)nc(-c2cc(NC)nc3[nH]ccc23)n1,18.38%,31.21%
CCn1cc(CN2CCc3nc(N4CCOCC4)nc(O)c3CC2)cn1,16.78%,-0.6254%
O=C(O)C(F)(F)F.[H][C@@]12CCCO[C@]1([H])[C@@H](OC)CN2CC1CCOCC1,-,38.68%
Fc1cnccc1CN1CCCC2(CCN(c3ncccn3)CC2)C1,14.09%,-
CCc1nc(CN(C)C2CCN(CC(=O)N3CCOCC3)C2)no1 (stereo not shown),2.514%,-3.138%
CCC(=O)Nc1nnc2n(Cc3cccc(OC)c3)[nH]c(C)c1-2,17.62%,16.87%
COCc1nc(CN2CCC3(CCCO3)CCC2=O)no1 (stereo not shown),13.66%,7.962%
Cc1cc(NCCc2c[nH]cn2)nc(-c2cccnc2)n1,13.33%,10.62%
Cc1ccc(NS(C)(=O)=O)c(C(=O)NCCC(=O)NC(C)C)c1,0.8065%,8.001%
Cc1ccc(CC(NC(=O)CN(C)C2CC2)c2ccccn2)cc1 (stereo not shown),15.6%,38.51%
Cn1ncc2c(=O)[nH]c(CN3CCCC3Cc3ccc(F)cc3)nc21 (stereo not shown),16.48%,10.76%
CC(=O)N1CCc2c(nc(-c3cccnc3)nc2N(C)CC(O)CO)C1 (stereo not shown),8.602%,-49.53%
COc1ccc(C(C)NCc2scnc2C)cc1Cn1cccn1 (stereo not shown),8.303%,-8.55%
CC(=O)N(Cc1ccc(NCc2cnn(C(C)(C)C)c2)cc1)C(C)C,17.13%,0.5124%
Cc1cnc(N2C(=O)CSC2c2cccs2)s1 (stereo not shown),8.421%,-24.6%
O=C(O)C(F)(F)F.[H][C@]12CCN(C(=O)c3cccc(OC)c3)CC[C@@]1([H])S(=O)(=O)CCN2C,-,-21.39%
Cc1cc(CNC2(c3ccccc3)CCCCC2)on1,10.08%,-31.16%
O=C(c1ncccn1)N1C[C@@H]2CN(CC3CC3)CCO[C@@H]2C1,4.188%,-
CNC(=O)[C@@H]1COC[C@H]2CN(C(=O)COc3ccccc3)C[C@H]21,12.8%,-
O=C(O)C(F)(F)F.[H][C@@]12C[C@@H](c3nc(C4CC4)cs3)O[C@]1([H])CN(C(=O)c1cccn1C)C2,-,-2.903%
O=C(NC1(c2nnn(CCO)n2)CCCC1)c1ccccc1,19.51%,5.493%
CCOc1ccc(CC(CNC(=O)c2ccoc2C)C(N)=O)cc1 (stereo not shown),14.09%,21.96%
Cc1ccc2oc(C(=O)N3CCCC(n4nc(C)cc4C)C3)cc2n1 (stereo not shown),13.5%,20.95%
CN(C)CCCN(Cc1ccco1)Cc1ccnn1C1CCCCO1.O=C(O)CC(O)(CC(=O)O)C(=O)O (stereo not shown),-,5.781%
Cn1cc(C2CC(=O)NC23CCN(Cc2ccncc2)CC3)cn1.O=C(O)C(F)(F)F.O=C(O)C(F)(F)F (stereo not shown),-,-12.84%
[H][C@]12CC[C@](O)(CC1)C(CO)N2Cc1ccco1 (stereo partly shown),-,32.33%
COc1cc(C)cc(OC)c1C(C(=O)O)N(C)Cc1c(C)nn(C)c1C (stereo not shown),18.05%,8.641%
CN1CCCC(c2cccc(Cc3ccccc3Cl)n2)C1 (stereo not shown),6.507%,-9.896%
O=C1CC[C@H]2[C@H](CCN2C(=O)C2CCCO2)N1Cc1ccncc1 (stereo partly shown),2.905%,-
Cc1c(C(=O)O)nnn1-c1cccc2cccnc12,21.98%,7.369%
CS(=O)(=O)NCCN1CCSCC1c1ccc(Cl)cc1 (stereo not shown),6.991%,-0.006273%
O=C(NCCNC1CCCCC1)c1cccs1,10.32%,-2.438%
CN(C)C(=O)CC1CC2(CCN(Cc3cccs3)CC2)c2ccccc21.O=C(O)C(F)(F)F (stereo not shown),-,-34.94%
Cc1noc(CN2CCN(CCO)CC2)n1,9.253%,-2.549%
Cc1noc(C(C)C)c1C(=O)NCC(c1cccs1)N(C)C (stereo not shown),16.11%,-8.16%
CCOCCn1nc(C2CCNCC2)n(Cc2ccccc2)c1=O,9.341%,-5.408%
CN(C)C(=O)CN1CCc2ncnc(N(C)C)c2CC1.O=C(O)C(F)(F)F,-,23.34%
Cc1ccsc1CNC1CCCc2c1cnn2C.Cl (stereo not shown),-,-3.9%

Some entries from above, unchanged:

COCC(=O)NCc1cc2n(n1)CCCN(Cc1ccccc1SC)C2 read LdMetRS: 15.68%; Mtb heat-shock: -15.81%.
O=C1CC[C@H]2[C@H](CCN2C(=O)C2CCCO2)N1Cc1ccncc1 (stereo partly shown) read LdMetRS: 2.905%.
CC(=O)N1CCc2c(nc(-c3cccnc3)nc2N(C)CC(O)CO)C1 (stereo not shown) read LdMetRS: 8.602%; Mtb heat-shock: -49.53%.
Cc1nc(CN2CCCn3c(nc(Cn4ccnc4)cc3=O)C2)cs1 read LdMetRS: 5.394%; Mtb heat-shock: -10.06%.
Cc1ccc2oc(C(=O)N3CCCC(n4nc(C)cc4C)C3)cc2n1 (stereo not shown) read LdMetRS: 13.5%; Mtb heat-shock: 20.95%.
CCc1nc(CN(C)C2CCN(CC(=O)N3CCOCC3)C2)no1 (stereo not shown) read LdMetRS: 2.514%; Mtb heat-shock: -3.138%.

The values are deposited in ChEMBL (CHEMBL3988442, “University of Dundee, Small-Polar-MMV Screening Library” (2021)).